Data as given in the supplement of paper PMC10849652.
The other results are listed elsewhere or left out.

By UniProt entry, the sequences of proteins in these tests, tags left out. Where a name states a change or a piece, a line headed by the entry shows the natural chain unless it says otherwise.
UniProt P61077: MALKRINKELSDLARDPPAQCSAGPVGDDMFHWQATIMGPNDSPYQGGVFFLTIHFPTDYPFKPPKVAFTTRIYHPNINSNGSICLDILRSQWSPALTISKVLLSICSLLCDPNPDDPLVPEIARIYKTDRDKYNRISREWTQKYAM
UniProt P83876: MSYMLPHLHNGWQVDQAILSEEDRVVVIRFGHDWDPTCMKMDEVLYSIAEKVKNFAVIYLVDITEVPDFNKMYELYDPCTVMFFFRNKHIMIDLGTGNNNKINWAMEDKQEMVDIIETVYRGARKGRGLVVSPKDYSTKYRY
UniProt O95801: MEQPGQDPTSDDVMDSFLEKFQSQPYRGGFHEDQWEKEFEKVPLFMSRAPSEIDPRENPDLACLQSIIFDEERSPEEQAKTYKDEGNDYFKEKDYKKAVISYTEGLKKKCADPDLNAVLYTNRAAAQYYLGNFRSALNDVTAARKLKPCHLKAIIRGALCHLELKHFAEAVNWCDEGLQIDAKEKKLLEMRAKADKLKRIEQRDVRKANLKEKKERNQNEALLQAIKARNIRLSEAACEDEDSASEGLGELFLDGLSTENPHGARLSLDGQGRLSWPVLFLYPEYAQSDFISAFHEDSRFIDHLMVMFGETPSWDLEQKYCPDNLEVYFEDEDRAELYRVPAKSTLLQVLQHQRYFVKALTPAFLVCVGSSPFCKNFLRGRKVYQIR
UniProt O43396: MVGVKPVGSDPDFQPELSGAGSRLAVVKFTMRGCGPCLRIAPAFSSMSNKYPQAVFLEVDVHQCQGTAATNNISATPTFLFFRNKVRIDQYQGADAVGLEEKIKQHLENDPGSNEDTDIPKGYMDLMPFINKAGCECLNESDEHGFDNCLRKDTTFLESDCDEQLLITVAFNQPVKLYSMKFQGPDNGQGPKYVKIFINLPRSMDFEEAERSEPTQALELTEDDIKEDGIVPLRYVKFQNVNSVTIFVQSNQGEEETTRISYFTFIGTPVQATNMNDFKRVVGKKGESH
UniProt Q5T6F2: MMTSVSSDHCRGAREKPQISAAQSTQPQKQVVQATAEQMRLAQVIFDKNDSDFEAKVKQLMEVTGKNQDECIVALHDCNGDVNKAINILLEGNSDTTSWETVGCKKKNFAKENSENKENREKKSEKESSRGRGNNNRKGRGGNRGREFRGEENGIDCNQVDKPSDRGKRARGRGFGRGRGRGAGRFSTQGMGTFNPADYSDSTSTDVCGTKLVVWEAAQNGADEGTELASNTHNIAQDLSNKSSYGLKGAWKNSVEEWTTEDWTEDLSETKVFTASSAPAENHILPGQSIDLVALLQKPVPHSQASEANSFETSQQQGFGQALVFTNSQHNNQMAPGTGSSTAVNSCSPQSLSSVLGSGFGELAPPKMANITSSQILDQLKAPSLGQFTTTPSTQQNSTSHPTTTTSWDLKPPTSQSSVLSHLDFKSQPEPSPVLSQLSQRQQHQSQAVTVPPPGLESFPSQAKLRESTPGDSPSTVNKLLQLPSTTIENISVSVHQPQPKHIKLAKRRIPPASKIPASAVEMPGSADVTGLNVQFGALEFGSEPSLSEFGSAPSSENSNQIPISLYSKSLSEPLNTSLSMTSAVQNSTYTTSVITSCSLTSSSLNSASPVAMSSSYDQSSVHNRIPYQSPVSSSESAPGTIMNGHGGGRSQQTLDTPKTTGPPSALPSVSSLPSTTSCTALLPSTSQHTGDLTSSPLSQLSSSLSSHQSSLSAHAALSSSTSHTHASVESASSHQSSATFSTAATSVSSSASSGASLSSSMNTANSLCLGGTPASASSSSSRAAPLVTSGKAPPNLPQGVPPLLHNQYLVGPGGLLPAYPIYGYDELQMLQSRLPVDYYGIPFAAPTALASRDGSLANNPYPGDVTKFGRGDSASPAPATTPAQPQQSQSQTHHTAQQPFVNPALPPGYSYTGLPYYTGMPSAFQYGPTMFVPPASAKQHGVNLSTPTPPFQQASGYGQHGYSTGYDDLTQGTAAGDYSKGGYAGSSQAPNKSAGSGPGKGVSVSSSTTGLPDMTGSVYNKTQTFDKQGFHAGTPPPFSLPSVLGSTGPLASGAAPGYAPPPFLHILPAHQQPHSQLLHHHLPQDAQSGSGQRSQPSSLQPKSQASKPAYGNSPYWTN
UniProt Q9BSL1: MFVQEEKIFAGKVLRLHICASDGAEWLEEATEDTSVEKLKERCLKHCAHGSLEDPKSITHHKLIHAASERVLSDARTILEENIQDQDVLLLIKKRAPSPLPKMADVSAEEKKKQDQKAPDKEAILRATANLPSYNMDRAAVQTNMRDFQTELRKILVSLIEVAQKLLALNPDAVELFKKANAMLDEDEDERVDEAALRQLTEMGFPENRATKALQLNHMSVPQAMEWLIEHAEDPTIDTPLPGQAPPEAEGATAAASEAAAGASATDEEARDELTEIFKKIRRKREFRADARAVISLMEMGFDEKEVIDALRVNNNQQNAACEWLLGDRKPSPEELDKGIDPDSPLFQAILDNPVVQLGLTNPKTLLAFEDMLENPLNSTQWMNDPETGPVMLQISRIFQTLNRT
UniProt Q05086: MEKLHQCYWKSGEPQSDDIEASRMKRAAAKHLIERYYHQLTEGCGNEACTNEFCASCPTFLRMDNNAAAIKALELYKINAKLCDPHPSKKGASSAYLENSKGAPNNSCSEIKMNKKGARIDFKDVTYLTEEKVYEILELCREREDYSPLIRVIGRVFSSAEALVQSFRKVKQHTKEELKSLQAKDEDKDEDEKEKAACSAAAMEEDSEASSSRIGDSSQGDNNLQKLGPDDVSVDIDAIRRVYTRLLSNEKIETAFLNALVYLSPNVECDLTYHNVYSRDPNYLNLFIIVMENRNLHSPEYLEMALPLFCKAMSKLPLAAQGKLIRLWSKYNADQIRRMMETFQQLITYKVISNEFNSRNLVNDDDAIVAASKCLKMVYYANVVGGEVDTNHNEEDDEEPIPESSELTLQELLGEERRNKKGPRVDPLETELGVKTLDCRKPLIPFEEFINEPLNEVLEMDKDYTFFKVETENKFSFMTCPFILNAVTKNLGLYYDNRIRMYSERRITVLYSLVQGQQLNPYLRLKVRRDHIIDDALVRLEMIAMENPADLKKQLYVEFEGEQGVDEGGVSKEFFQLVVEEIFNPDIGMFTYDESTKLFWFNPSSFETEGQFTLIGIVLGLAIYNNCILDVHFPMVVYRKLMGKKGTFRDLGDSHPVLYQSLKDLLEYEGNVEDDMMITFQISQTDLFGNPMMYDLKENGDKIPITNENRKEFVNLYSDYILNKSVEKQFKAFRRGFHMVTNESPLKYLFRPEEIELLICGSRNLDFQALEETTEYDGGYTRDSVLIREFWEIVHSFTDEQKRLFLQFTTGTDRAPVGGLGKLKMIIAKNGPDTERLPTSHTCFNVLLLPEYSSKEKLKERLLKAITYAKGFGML
UniProt O43156, whole entry, looked up: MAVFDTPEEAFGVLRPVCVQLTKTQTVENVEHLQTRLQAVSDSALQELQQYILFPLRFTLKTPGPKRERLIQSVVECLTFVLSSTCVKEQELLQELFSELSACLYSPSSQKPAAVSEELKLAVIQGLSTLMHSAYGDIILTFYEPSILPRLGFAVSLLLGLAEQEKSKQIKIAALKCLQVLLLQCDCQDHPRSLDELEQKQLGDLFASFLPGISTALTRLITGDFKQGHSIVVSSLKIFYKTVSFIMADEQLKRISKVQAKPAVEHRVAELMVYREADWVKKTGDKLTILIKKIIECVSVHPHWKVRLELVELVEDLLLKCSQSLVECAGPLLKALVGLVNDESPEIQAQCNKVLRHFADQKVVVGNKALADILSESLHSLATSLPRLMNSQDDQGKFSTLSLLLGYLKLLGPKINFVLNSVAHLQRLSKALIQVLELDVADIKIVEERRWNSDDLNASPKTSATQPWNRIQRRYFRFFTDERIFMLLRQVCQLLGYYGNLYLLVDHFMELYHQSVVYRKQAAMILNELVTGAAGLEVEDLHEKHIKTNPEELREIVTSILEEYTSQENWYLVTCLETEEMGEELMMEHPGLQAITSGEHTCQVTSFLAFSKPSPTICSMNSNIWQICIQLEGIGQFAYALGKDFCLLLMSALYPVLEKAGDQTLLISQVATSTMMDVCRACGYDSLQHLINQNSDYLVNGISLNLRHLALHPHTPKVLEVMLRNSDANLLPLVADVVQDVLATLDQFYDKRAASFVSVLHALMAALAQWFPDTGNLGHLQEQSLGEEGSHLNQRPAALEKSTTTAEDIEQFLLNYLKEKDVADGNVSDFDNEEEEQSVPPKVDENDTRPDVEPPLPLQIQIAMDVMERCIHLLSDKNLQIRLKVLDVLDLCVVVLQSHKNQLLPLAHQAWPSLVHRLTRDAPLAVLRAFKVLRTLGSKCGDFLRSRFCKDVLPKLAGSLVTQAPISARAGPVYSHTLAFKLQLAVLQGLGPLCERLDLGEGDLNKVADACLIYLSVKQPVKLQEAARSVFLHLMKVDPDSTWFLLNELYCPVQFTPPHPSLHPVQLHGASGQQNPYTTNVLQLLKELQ
UniProt Q99757: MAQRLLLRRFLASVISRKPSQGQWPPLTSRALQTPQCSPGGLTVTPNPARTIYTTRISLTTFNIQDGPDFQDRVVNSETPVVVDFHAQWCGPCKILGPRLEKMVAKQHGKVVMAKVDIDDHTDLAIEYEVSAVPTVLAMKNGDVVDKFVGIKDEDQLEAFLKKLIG
UniProt Q9NV66: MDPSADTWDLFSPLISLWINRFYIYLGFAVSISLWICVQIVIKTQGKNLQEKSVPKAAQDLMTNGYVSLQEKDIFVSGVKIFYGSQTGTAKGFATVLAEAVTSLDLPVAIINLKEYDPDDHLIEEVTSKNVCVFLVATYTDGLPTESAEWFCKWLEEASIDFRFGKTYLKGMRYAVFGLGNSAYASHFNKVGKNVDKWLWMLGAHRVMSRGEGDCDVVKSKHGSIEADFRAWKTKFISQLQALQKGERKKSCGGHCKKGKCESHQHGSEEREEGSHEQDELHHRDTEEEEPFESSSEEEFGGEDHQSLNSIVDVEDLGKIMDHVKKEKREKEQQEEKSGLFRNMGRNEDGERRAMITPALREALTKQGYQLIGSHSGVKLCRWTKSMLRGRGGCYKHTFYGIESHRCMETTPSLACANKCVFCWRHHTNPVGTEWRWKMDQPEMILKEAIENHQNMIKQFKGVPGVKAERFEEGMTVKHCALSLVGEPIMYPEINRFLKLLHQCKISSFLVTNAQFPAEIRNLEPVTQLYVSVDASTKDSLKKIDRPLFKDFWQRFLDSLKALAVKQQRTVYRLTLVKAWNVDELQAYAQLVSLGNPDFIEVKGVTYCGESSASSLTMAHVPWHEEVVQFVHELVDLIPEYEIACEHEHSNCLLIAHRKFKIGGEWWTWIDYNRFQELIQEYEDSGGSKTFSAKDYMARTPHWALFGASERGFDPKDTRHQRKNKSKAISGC
UniProt P26368, whole entry, looked up: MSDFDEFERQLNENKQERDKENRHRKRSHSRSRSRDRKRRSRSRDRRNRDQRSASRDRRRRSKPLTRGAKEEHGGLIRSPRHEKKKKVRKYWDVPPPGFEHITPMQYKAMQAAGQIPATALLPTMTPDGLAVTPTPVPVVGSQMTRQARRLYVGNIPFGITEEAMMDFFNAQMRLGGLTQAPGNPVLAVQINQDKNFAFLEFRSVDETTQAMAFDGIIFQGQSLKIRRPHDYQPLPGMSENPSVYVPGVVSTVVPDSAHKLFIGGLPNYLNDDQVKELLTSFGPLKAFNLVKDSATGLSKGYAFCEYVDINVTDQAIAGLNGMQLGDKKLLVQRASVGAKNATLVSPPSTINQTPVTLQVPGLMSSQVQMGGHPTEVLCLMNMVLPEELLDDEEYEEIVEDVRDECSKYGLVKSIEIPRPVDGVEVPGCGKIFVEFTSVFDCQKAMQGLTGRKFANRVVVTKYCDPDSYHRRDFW
UniProt Q8NG11: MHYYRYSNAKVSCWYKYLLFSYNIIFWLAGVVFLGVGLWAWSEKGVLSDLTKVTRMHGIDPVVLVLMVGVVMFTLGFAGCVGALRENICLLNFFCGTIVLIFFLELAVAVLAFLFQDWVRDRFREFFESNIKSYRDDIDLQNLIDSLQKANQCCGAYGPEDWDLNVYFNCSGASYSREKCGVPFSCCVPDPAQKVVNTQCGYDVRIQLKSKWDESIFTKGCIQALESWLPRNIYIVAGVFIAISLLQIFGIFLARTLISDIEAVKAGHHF
UniProt Q9UJK0: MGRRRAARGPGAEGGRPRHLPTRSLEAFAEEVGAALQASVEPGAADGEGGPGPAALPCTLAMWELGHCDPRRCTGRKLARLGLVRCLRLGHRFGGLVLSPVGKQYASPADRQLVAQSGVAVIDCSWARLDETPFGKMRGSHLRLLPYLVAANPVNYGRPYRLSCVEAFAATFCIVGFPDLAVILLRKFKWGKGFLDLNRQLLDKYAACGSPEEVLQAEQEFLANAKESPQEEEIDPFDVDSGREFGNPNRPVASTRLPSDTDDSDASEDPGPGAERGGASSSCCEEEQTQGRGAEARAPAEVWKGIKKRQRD
UniProt O95881: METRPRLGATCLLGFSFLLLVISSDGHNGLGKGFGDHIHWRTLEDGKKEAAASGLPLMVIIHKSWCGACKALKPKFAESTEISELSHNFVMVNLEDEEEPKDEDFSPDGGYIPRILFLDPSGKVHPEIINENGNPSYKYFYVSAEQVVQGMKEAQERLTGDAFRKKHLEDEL

Columns and labels:
Test in all cases: log2 fold change, soluble protein after heating vs DMSO (PISA); higher = thermal stabilisation; K562 cells, 10 uM, 30 min; active = over 0.2 and 3.5 SD of the protein, either way, in both replicates (recomputed)
bafetinib = compound: Cc1ccc(NC(=O)c2ccc(CN3CC[C@H](N(C)C)C3)c(C(F)(F)F)c2)cc1Nc1nccc(-c2cncnc2)n1 [bafetinib]
Summary of the method: (§1)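 K562 cells at 2×10^6 cells/mL were treated for 30 min with 10 μM compound, and aliquots were heated for 3 min over 48°C-58°C before pooling. Extraction used PBS with 0.5% NP-40 at 4°C, and soluble protein was the supernatant after 21,000xg for 90 min, measured by TMTpro 16plex LC-MS/MS with channel sums equalised. Thermal stability values, relative to control samples and from duplicates, are log2 fold changes.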

[1] = compound: Cc1cccc(CC(=O)N2CCc3c2ccc(-c2cn(C)c4ncnc(N)c24)c3F)n1
Summary of the method: as §1

nilotinib = compound: Cc1cn(-c2cc(NC(=O)c3ccc(C)c(Nc4nccc(-c5cccnc5)n4)c3)cc(C(F)(F)F)c2)cn1 [nilotinib]
Summary of the method: as §1

[2] = compound: Cc1nc(Nc2n[nH]c3c2CN(C(=O)N[C@H](CN(C)C)c2ccccc2)C3(C)C)c2sccc2n1
Summary of the method: as §1

dasatinib = compound: Cc1nc(Nc2ncc(C(=O)Nc3c(C)cccc3Cl)s2)cc(N2CCN(CCO)CC2)n1 [dasatinib]
Summary of the method: as §1

[3] = compound: Cc1ncc(-c2ccnc(Nc3ccc(S(C)(=O)=O)cc3)n2)n1C(C)C
Summary of the method: as §1

[4] = compound: Cn1cc(-c2ccc3c(c2)CCN3C(=O)Cc2cccc(C(F)(F)F)c2)c2c(N)ncnc21
Summary of the method: as §1

[5] = compound: Cn1cc(-c2ccc3nnc(C(F)(F)c4ccc5ncccc5c4)n3n2)cn1
Summary of the method: as §1

tipifarnib = compound: Cn1cncc1[C@@](N)(c1ccc(Cl)cc1)c1ccc2c(c1)c(-c1cccc(Cl)c1)cc(=O)n2C [tipifarnib]
Summary of the method: as §1

mubritinib = compound: FC(F)(F)c1ccc(/C=C/c2nc(COc3ccc(CCCCn4ccnn4)cc3)co2)cc1 [mubritinib]
Summary of the method: as §1

[6] = compound: NC(=O)Nc1cc(-c2cccc(F)c2)sc1C(=O)N[C@H]1CCCNC1
Summary of the method: as §1

[7] = compound: NC(=O)c1cnc(N[C@@H]2CCCC[C@@H]2N)nc1Nc1cccc(-n2nccn2)c1
Summary of the method: as §1

[8] = compound: NC1(c2ccc(-c3nc4ccn5c(=O)[nH]nc5c4cc3-c3ccccc3)cc2)CCC1
Summary of the method: as §1

[9] = compound: NCC(=O)Nc1ccc(-n2nc(C(F)(F)F)cc2-c2ccc3c(ccc4ccccc43)c2)cc1
Summary of the method: as §1

entinostat = compound: Nc1ccccc1NC(=O)c1ccc(CNC(=O)OCc2cccnc2)cc1 [entinostat]
Summary of the method: as §1

vorinostat = compound: O=C(CCCCCCC(=O)Nc1ccccc1)NO [vorinostat]
Summary of the method: as §1

citarinostat = compound: O=C(CCCCCCNC(=O)c1cnc(N(c2ccccc2)c2ccccc2Cl)nc1)NO [citarinostat]
Summary of the method: as §1

silmitasertib = compound: O=C(O)c1ccc2c(c1)nc(Nc1cccc(Cl)c1)c1ccncc12 [silmitasertib]
Summary of the method: as §1

[10] = compound: O=C1NC(=O)C(c2cnc3ccccn23)=C1c1cn2c3c(cc(F)cc13)CN(C(=O)N1CCCCC1)CC2
Summary of the method: as §1

[11] = compound: c1cc(OCCN2CCCCC2)cc(-c2n[nH]c3ccc(-c4nnc[nH]4)cc23)c1
Summary of the method: as §1

Target	log2 fold change (bafetinib)	log2 fold change [1]	log2 fold change (nilotinib)	log2 fold change [2]	log2 fold change (dasatinib)	log2 fold change [3]	log2 fold change [4]	log2 fold change [5]	log2 fold change (tipifarnib)	log2 fold change (mubritinib)	log2 fold change [6]	log2 fold change [7]	log2 fold change [8]	log2 fold change [9]	log2 fold change (entinostat)	log2 fold change (vorinostat)	log2 fold change (citarinostat)	log2 fold change (silmitasertib)	log2 fold change [10]	log2 fold change [11]
UBE2D3 isoform 3 (UniProt P61077)	inactive: -0.04	inactive: 0.035	inactive: -0.054	inactive: -0.021	inactive: -0.024	inactive: -0.011	inactive: -0.03	inactive: 0.01	inactive: -0.007	inactive: 0.031	inactive: 0	inactive: -0.056	inactive: -0.096	inactive: -0.052	inactive: -0.005	inactive: 0.033	inactive: 0.081	inactive: -0.022	inactive: -0.063	inactive: -0.035
TXNL4A (UniProt P83876)	inactive: -0.026	inactive: -0.004	inactive: -0.018	inactive: 0.014	inactive: -0.008	inactive: -0.039	inactive: 0.038	inactive: -0.019	inactive: 0.02	inactive: 0.053	inactive: -0.011	inactive: -0.026	inactive: -0.085	inactive: -0.051	inactive: -0.015	inactive: -0.013	inactive: 0.02	inactive: -0.036	inactive: -0.054	inactive: -0.072
TTC4 (UniProt O95801)	inactive: 0.036	inactive: 0.116	inactive: -0.034	inactive: -0.094	inactive: -0.137	inactive: 0.003	inactive: 0.019	inactive: 0	inactive: -0.077	inactive: 0.061	inactive: -0.071	inactive: -0.047	inactive: -0.064	inactive: -0.073	inactive: 0.069	inactive: 0.077	inactive: 0.064	inactive: 0.074	inactive: -0.051	inactive: -0.014
TXNL1 (UniProt O43396)	inactive: 0.04	inactive: 0.005	inactive: -0.035	inactive: -0.006	inactive: -0.074	inactive: 0.008	inactive: -0.004	inactive: -0.035	inactive: -0.06	inactive: 0.057	inactive: -0.048	inactive: -0.013	inactive: -0.084	inactive: -0.015	inactive: 0.028	inactive: 0.018	inactive: 0.087	inactive: 0.074	inactive: -0.004	inactive: -0.03
UBAP2 (UniProt Q5T6F2)	inactive: -0.032	inactive: -0.013	inactive: 0.012	inactive: 0.016	inactive: 0.028	inactive: -0.026	inactive: -0.009	inactive: 0.006	inactive: 0.015	inactive: 0.055	inactive: -0.011	inactive: 0.022	inactive: 0.05	inactive: 0.016	inactive: -0.025	inactive: -0.023	inactive: 0.029	inactive: 0.008	inactive: -0.029	inactive: 0.026
UBAC1 (UniProt Q9BSL1)	inactive: -0.078	inactive: 0.038	inactive: -0.046	inactive: -0.057	inactive: -0.079	inactive: -0.033	inactive: 0.036	inactive: 0.01	inactive: -0.024	inactive: 0.041	inactive: 0.026	inactive: -0.101	inactive: -0.105	inactive: -0.009	inactive: 0.017	inactive: 0.048	inactive: 0.055	inactive: 0.004	inactive: -0.006	inactive: -0.05
UBE3A (UniProt Q05086)	inactive: -0.034	inactive: 0.023	inactive: -0.01	inactive: 0.001	inactive: -0.044	inactive: -0.026	inactive: 0.021	inactive: -0.002	inactive: -0.015	inactive: 0.065	inactive: -0.006	inactive: -0.001	inactive: -0.065	inactive: 0	inactive: -0.009	inactive: 0.03	inactive: 0.034	inactive: -0.009	inactive: -0.028	inactive: -0.023
TTI1 (UniProt O43156)	inactive: -0.006	inactive: 0.165	inactive: -0.036	inactive: -0.102	inactive: -0.076	inactive: 0.039	inactive: 0.085	inactive: 0	inactive: -0.103	inactive: 0.095	inactive: -0.079	inactive: -0.093	inactive: -0.181	inactive: -0.022	inactive: 0	inactive: 0.142	inactive: 0.028	inactive: 0.062	inactive: 0.057	inactive: -0.099
TSR1 (UniProt Q2NL82)	inactive: 0.201	inactive: -0.037	inactive: -0.048	inactive: 0.135	inactive: -0.017	inactive: 0.057	inactive: -0.09	inactive: -0.031	inactive: 0.029	inactive: -0.009	inactive: -0.023	inactive: 0.059	inactive: 0.047	inactive: 0.057	inactive: 0.027	inactive: 0.056	inactive: 0.001	inactive: -0.05	inactive: 0.121	inactive: -0.092
TXN2 (UniProt Q99757)	inactive: -0.105	inactive: -0.104	inactive: 0.034	inactive: -0.005	inactive: 0.083	inactive: -0.048	inactive: 0.227	inactive: 0.013	inactive: 0.059	inactive: 0.009	inactive: -0.039	inactive: -0.009	inactive: 0.088	inactive: 0.049	inactive: 0.023	inactive: -0.072	inactive: 0.054	inactive: -0.072	inactive: -0.09	inactive: -0.036
UBE2V2 (UniProt Q15819)	inactive: -0.055	inactive: 0.017	inactive: 0.068	inactive: -0.015	inactive: 0.002	inactive: -0.015	inactive: 0.053	inactive: 0.009	inactive: -0.011	inactive: 0.036	inactive: -0.03	inactive: -0.026	inactive: -0.026	inactive: 0.024	inactive: 0	inactive: -0.008	inactive: 0.052	inactive: -0.051	inactive: -0.041	inactive: -0.046
TYW1 (UniProt Q9NV66)	inactive: -0.003	inactive: 0.033	inactive: -0.107	inactive: -0.005	inactive: 0.015	inactive: 0.04	inactive: -0.001	inactive: -0.085	inactive: -0.041	inactive: -0.075	inactive: -0.022	inactive: 0.05	inactive: 0.004	inactive: 0.013	inactive: 0.028	inactive: -0.056	inactive: 0.053	inactive: 0.039	inactive: -0.141	inactive: -0.007
U2AF2 (UniProt P26368)	inactive: -0.019	active: -0.241	inactive: -0.003	active: -1.66	inactive: 0.018	inactive: 0.049	inactive: -0.011	inactive: -0.044	inactive: 0.045	inactive: -0.051	inactive: -0.125	inactive: -0.021	inactive: 0.033	inactive: -0.051	inactive: -0.031	inactive: -0.129	inactive: -0.014	inactive: -0.049	inactive: 0.113	inactive: -0.09
TSPAN14 (UniProt Q8NG11)	inactive: 0.072	inactive: -0.154	inactive: 0.006	inactive: 0.059	inactive: 0.046	inactive: 0.006	inactive: 0.036	inactive: 0.007	inactive: 0.019	inactive: 0.011	inactive: 0.046	inactive: 0.082	inactive: 0.028	inactive: -0.056	inactive: 0.008	inactive: -0.103	inactive: 0.038	inactive: -0.011	inactive: 0.007	inactive: -0.078
TSR3 (UniProt Q9UJK0)	inactive: 0.052	inactive: -0.036	inactive: 0.021	inactive: 0.019	inactive: 0.042	inactive: 0	inactive: -0.043	inactive: -0.019	inactive: 0.1	inactive: 0.01	inactive: -0.006	inactive: 0.095	inactive: 0.056	inactive: 0.009	inactive: -0.076	inactive: 0.028	inactive: -0.011	inactive: -0.04	inactive: 0.048	inactive: -0.135
TXNDC12 (UniProt O95881)	inactive: -0.043	inactive: 0.031	inactive: -0.019	inactive: 0.033	inactive: 0.077	inactive: -0.046	inactive: -0.049	inactive: -0.043	inactive: 0.103	inactive: -0.011	inactive: -0.176	inactive: -0.033	inactive: -0.002	inactive: 0.093	inactive: -0.063	inactive: -0.016	inactive: -0.029	inactive: 0.002	inactive: -0.016	inactive: -0.069

Some entries already given with just log2 fold change [5].
Target | log2 fold change [5]
UBE3A (UniProt Q05086) | inactive: -0.002
TTI1 (UniProt O43156) | inactive: 0
